Chains of the proteins cited; added tags and fusions are not shown.
UniProt Q9NZV8: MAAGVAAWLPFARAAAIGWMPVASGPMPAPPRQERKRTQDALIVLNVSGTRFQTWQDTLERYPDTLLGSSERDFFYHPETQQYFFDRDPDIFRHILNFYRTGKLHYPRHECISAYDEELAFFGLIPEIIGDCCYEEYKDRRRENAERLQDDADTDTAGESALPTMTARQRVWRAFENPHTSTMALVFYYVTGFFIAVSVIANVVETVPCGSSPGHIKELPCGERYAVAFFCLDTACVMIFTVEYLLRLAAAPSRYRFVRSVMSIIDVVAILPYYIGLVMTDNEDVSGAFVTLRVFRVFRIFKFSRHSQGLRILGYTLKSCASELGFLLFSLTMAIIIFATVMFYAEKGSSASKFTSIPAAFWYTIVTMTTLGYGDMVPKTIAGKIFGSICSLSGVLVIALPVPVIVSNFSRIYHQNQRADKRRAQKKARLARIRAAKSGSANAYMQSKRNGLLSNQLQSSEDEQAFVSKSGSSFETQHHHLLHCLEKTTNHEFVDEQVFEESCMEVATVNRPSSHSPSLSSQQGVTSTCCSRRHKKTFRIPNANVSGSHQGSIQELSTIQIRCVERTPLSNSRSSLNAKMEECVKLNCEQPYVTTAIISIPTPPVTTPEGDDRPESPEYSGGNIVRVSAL

According to PMC9788671:

The binders below were run against TAP-Kv4.2 (human) (UniProt Q9NZV8) (assay: affinity purification with mass spectrometry; TAP-Kv4.2 expressed by lentivirus in rat hippocampal neurons, harvested at DIV14; weak lysis buffer of the kit (0.1% NP-40); streptavidin resin, then calmodulin resin; gel cut into high and low molecular weight fragments; no MS of the control sample).

| Binder | binding |
| --- | --- |
| Prdx1 (protein, UniProt Q63716 1-199) MSSGNAKIGHPAPSFKATAVMPDGQFKDISLSDYKGKYVVFFFYPLDFTFVCPTEIIAFSDRAEEFKKLNCQVIGASVDSHFCHLAWINTPKKQGGLGPMNIPLVSDPKRTIAQDYGVLKADEGISFRGLFIIDDKGILRQITINDLPVGRSVDEILRLVQAFQFTDKHGEVCPAGWKPGSDTIKPDVNKSKEYFSKQK | binds |
| Tkt (protein, UniProt P50137 1-623) MEGYHKPDQQKLQALKDTANRLRISSIQATTAAGSGHPTSCCSAAEIMAVLFFHTMRYKALDPRNPHNDRFVLSKGHAAPILYAVWAEAGFLPEAELLNLRKISSDLDGHPVPKQAFTDVATGSLGQGLGAACGMAYTGKYFDKASYRVYCMLGDGEVSEGSVWEAMAFAGIYKLDNLVAIFDINRLGQSDPAPLQHQVDVYQKRCEAFGWHAIIVDGHSVEELCKAFGQAKHQPTAIIAKTFKGRGITGIEDKEAWHGKPLPKNMAEQIIQEIYSQVQSKKKILATPPQEDAPSVDIANIRMPTPPNYKVGDKIATRKAYGLALAKLGHASDRIIALDGDTKNSTFSELFKKEHPDRFIECYIAEQNMVSIAVGCATRDRTVPFCSTFAAFFTRAFDQIRMAAISESNINLCGSHCGVSIGEDGPSQMALEDLAMFRSVPMSTVFYPSDGVATEKAVELAANTKGICFIRTSRPENAIIYSNNEDFQVGQAKVVLKSKDDQVTVIGAGVTLHEALAAAEMLKKEKIGVRVLDPFTIKPLDKKLILDCARATKGRILTVEDHYYEGGIGEAVSAVVVGEPGVTVTRLAVSQVPRSGKPAELLKMFGIDKDAIVQAVKGLVTKG | binds |
| Ces1c (protein, UniProt P10959 19-549) HPSSPPVVDTTKGKVLGKYVSLEGFTQPVAVFLGVPFAKPPLGSLRFAPPEPAEPWSFVKNTTTYPPMCSQDGVVGKLLADMLSTGKESIPLEFSEDCLYLNIYSPADLTKNSRLPVMVWIHGGGLIIGGASPYSGLALSAHENVVVVTIQYRLGIWGLFSTGDEHSRGNWAHLDQLAALRWVQDNIANFGGNPDSVTIFGESAGGVSVSALVLSPLAKNLFHRAISESGVVLTTNLDKKNTQAVAQMIATLSGCNNTSSAAMVQCLRQKTEAELLELTVKLDNTSMSTVIDGVVLPKTPEEILTEKSFNTVPYIVGFNKQEFGWIIPTMMGNLLSEGRMNEKMASSFLKRFSPNLNISESVIPAIIEKYLRGTDDPAKKKELLLDMFSDVFFGIPAVLMSRSLRDAGAPTYMYEFQYRPSFVSDQRPQTVQGDHGDEIFSVFGTPFLKEGASEEETNLSKLVMKFWANFARNGNPNGEGLPHWPKYDQKEGYLQIGATTQQAQKLKGEEVAFWTELLAKNPPQTEHTEHT | binds |
| Psmc2 (protein, UniProt Q63347 1-433) MPDYLGADQRKTKEDEKDDKPIRALDEGDIALLKTYGQSTYSRQIKQVEDDIQQLLKKINELTGIKESDTGLAPPALWDLAADKQTLQSEQPLQVARCTKIINADSEDPKYIINVKQFAKFVVDLSDQVAPTDIEEGMRVGVDRNKYQIHIPLPPKIDPTVTMMQVEEKPDVTYSDVGGCKEQIEKLREVVETPLLHPERFVNLGIEPPKGVLLFGPPGTGKTLCARAVANRTDACFIPVIGSELVQKYVGEGARMVRELFEMARTKKACLIFFDEIDAIGGARFDDGAGGDNEVQRTMLELINQLDGFDPRGNIKVLMATNRPDTLDPALMRPGRLDRKIEFSLPDLEGRTHIFKIHARSMSVERDIRFELLARLCPNSTGAEIRSVCTEAGMFAIRARRKIATEKDFLEAVNKVIKSYAKFSATPRYMTYN | binds |
| Sccpdh (protein, UniProt Q6AY30 1-429) MATEQRPFQLVVFGASGFTGQFVTEEVAREQMASEQSSRLPWAVAGRSKEKLQQVLEKAAQKLGRATLSSEVGIIICDISNPASLDEMAKKATLVLNCVGPYRFYGEPVVKACIENGTSCIDICGEPQFLELMHVKYHEKAAEKGVYIIGSSGFDSIPADLGVLYTRNQMNGTLTAVESFLTINSGPEGLCIHDGTWKSAIYGFGDKGSLRKLRSVSNLKPVPVIGSKLKRRWPVSYCRELNSYAIPFLGSDMSVVKRTQRYLHENLEDSPVQYAAYITVGGITSVIKLMFAGLFFLFFVKFSIGRQLLVKFPWLFSFGYFSKRGPTQKQMDESSFTMTFFGQGYSHGVSAEKNKPNIRICTQVKGPEAGYVATPIAMVQAAVTFLNDASDLPKGGGVFTPGAAFSRTKLIDRLNQHGIQFSVISSSEV | binds |
| Gdap1 (protein, UniProt D4A5X7 1-422) MTSQGPLPTRQHSFLGVKLHLPEASSSAKHVLYATGGPAKPKDGSKPLQQAGQPTRLAESLHPAMARKQDEARSGVPLRAQGPPAAEVRLILYHWTHSFSSQKVRLVIAEKALKCEEHDVSLPLSEHNEPWFMRLNSTGEVPVLIHGENIICEATQIIDYLEQTFLDERTPRLMPDEGSMYYPRVQHYRELLDSLPMDAYTHGCILHPELTVDSMIPAYATTRIRGQIGNTESELKKLAEENPDLQEAYIAKQKRLKSKLLDHDNVKYLKKILDELEKVLDQVETELQRRNEETPDEGNQPWLCGESFTLADVSLAVTLHRLKFLGFARRNWGHGKRPNLESYYERVLKRKTFNKVLGHVNNILISAVLPTAFRVAKKRAPKVLGSTLVVGLLVGMGYFAFMLFRRRLGNMILSLRPRPNYF | binds |
| Vat1 (protein, UniProt Q3MIE4 1-404) MSAEREATEAATVAAAAEARAETGAGEGAPSQPPTVEVASDPQPPPAPEASASASAPPLRCLVLTGFGGYDKVKLQSRPAVPPAPGPGQVTLRVRACGLNFADLMGRQGLYDRLPPLPVTPGMEGAGVVVAVGEGVSDRKAGDRVMVLNRSGMWQEEVTVPSAQTFLMPEAMTFEEAAALLVNYITAYMVLFDFGNLRPGHSVLVHMAAGGVGMAALQLCRTVENVTVFGTASASKHEVLKENGVTHPIDYHTTDYVDEIKKISPKGVDIVMDPLGGSDTAKGYHLLKPMGKVVTYGMANLLTGPKRNLMAMARTWWNQFSVTALQLLQANRAVCGFHLGYLDGEVELVSRVVTHLLALYNQGHIKPRIDSVWPFEKVADAMRQMQEKKNIGKVLLVPGPEKET | binds |

Second part, the binder after the results:

| binding | Binder |
| --- | --- |
| binds | Pgam2 (protein, UniProt P16290 1-253) MATHRLVMVRHGESSWNQENRFCGWFDAELSEKGAEEAKRGATAIKDAKIEFDICYTSVLKRAIRTLWTILDVTDQMWVPVVRTWRLNERHYGGLTGLNKAETAAKHGEEQVKIWRRSFDTPPPPMDEKHNYYASISKDRRYAGLKPEELPTCESLKDTIARALPFWNEEIAPKIKAGKRVLIAAHGNSLRGIVKHLEGMSDQAIMELNLPTGIPIVYELNQELKPTKPMRFLGDEETVRKAMEAVAAQGKAK |
| binds | Gpd1l (protein, UniProt D3ZAP9 1-351) MAAAPLKVCIVGSGNWGSAVAKIIGSNVKNLQKFSSTVKMWVFEETVNGRKLTDIINNDHENVKYLPGHKLPENVVAVPNLGEAVQDADLLVFVIPHQFIHKICDEITGRVPKKAVGITLIKGIDEGPDGLKLISDIIREKMGIDISVLMGANIASEVAAEKFCETTIGSKVLQNGLLFKELLQTPNFRITVVDDADTVELCGALKNIVAVGAGFCDGLCCGDNTKAAVIRLGLMEMIAFAKIFCKGQVSTATFLESCGVADLITTCYGGRNRKVAEAFARTGKTIEELEKELLNGQKLQGPQTSAEVYRILKQKGLLDKFPLFTAVYQICYEGRPVTQMLSCLQSHPEHI |
| binds | A1m (protein, UniProt Q63041 25-1500) ATGKPRYVVLVPSELYAGVPEKVCVHLNHLNETVTLNVTLEYGVQYSNLLIDQAVDKDSSYCSSFTISRPLSPSALIAVEIKGPTHHFIKKKSMWITKAESPVFVQTDKPIYKPGQTVKFRVVSVDISFRPVNETFPVVYIENPKRNRIFQWQNVDLPGGLHQLSFPLSVEPALGIYKVVVQKDSGKKIEHSFEVKEYVLPKFEVQVKMPKTMAFLEEELVVTACGLYTYGKPVPGLVTMKVCRKYTQSYSNCHGQHSKSICEEFSKQADEKGCFRQVVKTKVFQPRQKGYDMKIEVEAKIKEDGTGIELTGTGSCEIANTLSKLKFTKANTFYRPGLPFFGQVLLVDEKGQPIPNKNLTVQVNSVRSQFTFTTDEHGLANILIDTTNFTFSFMGIRVIYKQNNICFDNWWVDEYHTQADHSAARIFSPSRSYIQLELVLGTLACGQTQEIRIHFLLNEDALKDAKDLTFYYLIKARGSIFNSGSHVLPLEQGKVKGVVSFPIRVEPGMAPVAKLIVYTILPNEELIADVQKFDIEKCFANTVNLSFPSAQSLPASDTHLTVKATPLSLCALTAVDQSVLLLKPEAKLSPQSIYNLLPQKAEQGAYLGPLPYKGGENCIKAEDITHNGIVYTPKQDLNDNDAYSVFQSIGLKIFTNTRVHKPRYCPMYQAYPPLPYVGEPQALAMSAIPGAGYRSSNIRTSSMMMMGASEVAQEVEVRETVRKYFPETWIWDMVPLDLSGDGELPVKVPDTITEWKASAFCLSGTTGLGLSSTISHKVFQPFFLELTLPYSVVRGEAFILKATVLNYMPHCIRIHVSLEMSPDFLAVPVGSHEDSHCICGNERKTVSWAVTPKSLGEVNFTATAEALQSPELCGNKVAEVPALVQKDTVVKPVIVEPEGIEKEQTYNTLLCPQDAELQENWTLDLPANVVEGSARATQSVLGDILGSAMQNLQNLLQMPYGCGEQNMVLFVPNIYVLEYLNETQQLTEAIKSKAISYLISGYQRQLNYQHSDGSYSTFGDRGMRHSQGNTWLTAFVLKAFAQAQSYIYIEKTHITNAFNWLSMKQRENGCFQQSGSLLNNAMKGGVDDEVTLSAYITIALLEMPLPVTHSVVRNALFCLETAWASISNSQESHVYTKALLAYAFALAGNRAKRSEVLESLNKDAVNEEESVHWQRPKNVEENVREMRSFSYKPRAPSAEVEMTAYVLLAYLTSASSRPTRDLSSSDLTTASKIVKWISKQQNSHGGFSSTQDTVVALQALSKYGAATFTKSNKEVSVTIESSGTVSGTLHVNNGNRLLLQEVRLADLPGNYITKVSGSGCVYLQTSLKYNILPEAEGEAPFTLKVNTLPLNFDKAEHHRKFQIHINVSYIGERPNSNMVIVDVKMVSGFIPVKPSVKKLQDQSNIQRTEVNTNHVLIYIEKLTNQTMGFSFAVEQDIPVKNLKPAPVKVYDYYETDEFAIEEYSAPFSSDSEQGNA |
| binds | Serpina3n (protein, UniProt P09006 30-418) TLFHEDQDKGTQLDSLTLASINTDFAFSLYKKLALRNPDKNVVFSPLSISAALAVVSLGAKGNSMEEILEGLKFNLTETPETEIHRGFGHLLQRLSQPRDEIQISTGNALFIEKRLQVLAEFQEKAKALYQAEAFTADFQQSREAKKLINDYVSKQTQGKIQGLITNLAKKTSMVLVNYIYFKGKWKVPFDPRDTFQSEFYSGKRRPVKVPMMKLEDLTTPYVRDEELNCTVVELKYTGNASALFILPDQGKMQQVEASLQPETLRRWKDSLRPSMIDELYLPKFSISADYNLEDVLPELGIKEVFSTQADLSGITGDKDLMVSQVVHKAVLDVAETGTEAAAATGVKFVPMSAKLDPLIIAFDRPFLMIISDTETAIAPFLAKIFNPK |

No constants are given. Whether binding was seen depends on the method and setting. Binding seen in cells or lysates may run through a third protein. These calls come from enrichment with a bait or labelling near it, and not all partners need be listed.
